Test results reported in article PMC4102803.
These are yes or no findings as the source states them, for the method shown. Binding seen in cells or lysates may run through a third protein. A yes stands for co-enrichment or nearness to the bait. Other partners may have been found. Tags and fused reporters may be left off the sequences shown.

Sequences of proteins named here, by UniProt entry; tags and fusion partners are left off.
UniProt Q9UJU6: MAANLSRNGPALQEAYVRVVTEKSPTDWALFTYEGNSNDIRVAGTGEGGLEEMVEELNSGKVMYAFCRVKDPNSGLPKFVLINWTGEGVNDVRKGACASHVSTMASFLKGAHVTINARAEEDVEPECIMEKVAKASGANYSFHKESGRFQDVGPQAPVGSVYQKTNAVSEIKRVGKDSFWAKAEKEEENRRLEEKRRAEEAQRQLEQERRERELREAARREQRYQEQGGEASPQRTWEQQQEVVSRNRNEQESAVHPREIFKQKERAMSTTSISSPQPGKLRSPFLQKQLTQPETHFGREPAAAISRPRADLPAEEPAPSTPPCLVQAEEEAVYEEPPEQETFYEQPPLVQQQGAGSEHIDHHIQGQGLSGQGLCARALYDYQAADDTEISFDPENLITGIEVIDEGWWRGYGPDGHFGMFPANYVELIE

Biological target: T1, GST-14-3-3γ (affinity resin) (UniProt P61981)
T1 sequence: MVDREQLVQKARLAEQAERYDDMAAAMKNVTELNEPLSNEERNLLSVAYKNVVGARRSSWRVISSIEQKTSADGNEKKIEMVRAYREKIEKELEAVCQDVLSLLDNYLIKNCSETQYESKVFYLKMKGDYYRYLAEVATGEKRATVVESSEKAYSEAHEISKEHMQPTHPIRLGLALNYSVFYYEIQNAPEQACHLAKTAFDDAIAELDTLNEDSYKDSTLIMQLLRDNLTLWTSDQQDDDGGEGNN
Experiment: affinity purification with mass spectrometry; A549 cell lysates incubated with GST-14-3-3γ affinity resin; washed; bound proteins eluted with the 14-3-3 antagonist peptide R18; eluate analysed by mass spectrometry; only the target purified

binding: binds
Substance: HIP-55 (HPK1-interacting protein of 55 kDa)/Drebrin-like (DBNL) (from UniProt Q9UJU6 1-430)
